Results from PMC12307642.

By UniProt entry, the sequences of proteins in these tests, tags left out.
UniProt P06733: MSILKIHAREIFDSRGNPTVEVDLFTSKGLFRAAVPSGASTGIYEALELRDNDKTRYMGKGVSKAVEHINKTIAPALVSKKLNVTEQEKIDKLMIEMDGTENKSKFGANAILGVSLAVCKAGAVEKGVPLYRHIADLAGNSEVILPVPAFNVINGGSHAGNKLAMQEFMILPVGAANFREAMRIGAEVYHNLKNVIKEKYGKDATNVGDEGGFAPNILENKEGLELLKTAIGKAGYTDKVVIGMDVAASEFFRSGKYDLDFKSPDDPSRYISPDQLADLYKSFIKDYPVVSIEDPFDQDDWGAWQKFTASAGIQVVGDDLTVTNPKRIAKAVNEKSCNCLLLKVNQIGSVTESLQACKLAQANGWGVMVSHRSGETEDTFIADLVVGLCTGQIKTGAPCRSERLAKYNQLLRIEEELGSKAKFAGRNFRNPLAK

Biological target: T1, Flag-tagged circUBE2G1-99aa (human) (UniProt P62253)
T1 sequence: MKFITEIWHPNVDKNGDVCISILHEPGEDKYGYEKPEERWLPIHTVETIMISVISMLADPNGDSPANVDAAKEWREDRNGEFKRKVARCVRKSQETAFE
Assay: affinity purification with mass spectrometry; Flag immunoprecipitation (against IgG) from HGC-27 cells transfected with circUBE2G1-99aa plasmid; SDS-PAGE, bands excised, LC-MS/MS

enolase 1 (ENO1) (from UniProt P06733 1-434) (enzyme)
binding: binds

Results are given in words; binding and its absence hold for the method and conditions named. Binding seen in cells or lysates may run through a third protein. A yes stands for co-enrichment or nearness to the bait. Other partners may have been found. Where a sequence is shown, tags or fusion partners need not be part of it.
